Experimental data published in paper PMC8516413.
These are yes or no findings as the source states them, for the method shown. Binding seen in cells or lysates may run through a third protein. Some binding calls cover weakened binding; strength is not graded here.

By UniProt entry, the sequences of proteins in these tests, tags left out. Residues count along the entry.
UniProt Q9ULT6, residues 56-936: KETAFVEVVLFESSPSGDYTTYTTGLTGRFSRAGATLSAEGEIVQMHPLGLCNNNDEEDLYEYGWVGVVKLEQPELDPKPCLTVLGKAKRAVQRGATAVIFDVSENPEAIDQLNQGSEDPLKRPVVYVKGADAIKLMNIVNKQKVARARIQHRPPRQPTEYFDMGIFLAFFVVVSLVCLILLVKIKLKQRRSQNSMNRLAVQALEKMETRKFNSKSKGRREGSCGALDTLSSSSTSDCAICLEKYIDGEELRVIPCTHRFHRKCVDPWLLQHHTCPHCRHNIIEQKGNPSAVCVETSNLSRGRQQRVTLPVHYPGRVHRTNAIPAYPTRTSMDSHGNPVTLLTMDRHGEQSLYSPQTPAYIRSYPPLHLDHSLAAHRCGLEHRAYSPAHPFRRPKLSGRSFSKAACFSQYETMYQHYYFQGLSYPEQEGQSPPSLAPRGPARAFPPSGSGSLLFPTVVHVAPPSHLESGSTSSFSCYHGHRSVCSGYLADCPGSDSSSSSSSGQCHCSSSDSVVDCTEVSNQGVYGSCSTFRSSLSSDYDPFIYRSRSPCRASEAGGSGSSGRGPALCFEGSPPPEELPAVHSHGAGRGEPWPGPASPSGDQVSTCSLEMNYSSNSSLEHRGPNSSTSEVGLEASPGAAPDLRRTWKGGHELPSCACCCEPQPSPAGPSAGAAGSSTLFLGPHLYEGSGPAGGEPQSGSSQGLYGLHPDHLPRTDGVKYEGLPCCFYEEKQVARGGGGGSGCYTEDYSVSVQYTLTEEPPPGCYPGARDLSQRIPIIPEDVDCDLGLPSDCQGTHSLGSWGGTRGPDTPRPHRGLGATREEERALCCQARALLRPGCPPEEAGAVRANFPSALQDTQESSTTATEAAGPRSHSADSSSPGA
UniProt P08581, residues 25-1390: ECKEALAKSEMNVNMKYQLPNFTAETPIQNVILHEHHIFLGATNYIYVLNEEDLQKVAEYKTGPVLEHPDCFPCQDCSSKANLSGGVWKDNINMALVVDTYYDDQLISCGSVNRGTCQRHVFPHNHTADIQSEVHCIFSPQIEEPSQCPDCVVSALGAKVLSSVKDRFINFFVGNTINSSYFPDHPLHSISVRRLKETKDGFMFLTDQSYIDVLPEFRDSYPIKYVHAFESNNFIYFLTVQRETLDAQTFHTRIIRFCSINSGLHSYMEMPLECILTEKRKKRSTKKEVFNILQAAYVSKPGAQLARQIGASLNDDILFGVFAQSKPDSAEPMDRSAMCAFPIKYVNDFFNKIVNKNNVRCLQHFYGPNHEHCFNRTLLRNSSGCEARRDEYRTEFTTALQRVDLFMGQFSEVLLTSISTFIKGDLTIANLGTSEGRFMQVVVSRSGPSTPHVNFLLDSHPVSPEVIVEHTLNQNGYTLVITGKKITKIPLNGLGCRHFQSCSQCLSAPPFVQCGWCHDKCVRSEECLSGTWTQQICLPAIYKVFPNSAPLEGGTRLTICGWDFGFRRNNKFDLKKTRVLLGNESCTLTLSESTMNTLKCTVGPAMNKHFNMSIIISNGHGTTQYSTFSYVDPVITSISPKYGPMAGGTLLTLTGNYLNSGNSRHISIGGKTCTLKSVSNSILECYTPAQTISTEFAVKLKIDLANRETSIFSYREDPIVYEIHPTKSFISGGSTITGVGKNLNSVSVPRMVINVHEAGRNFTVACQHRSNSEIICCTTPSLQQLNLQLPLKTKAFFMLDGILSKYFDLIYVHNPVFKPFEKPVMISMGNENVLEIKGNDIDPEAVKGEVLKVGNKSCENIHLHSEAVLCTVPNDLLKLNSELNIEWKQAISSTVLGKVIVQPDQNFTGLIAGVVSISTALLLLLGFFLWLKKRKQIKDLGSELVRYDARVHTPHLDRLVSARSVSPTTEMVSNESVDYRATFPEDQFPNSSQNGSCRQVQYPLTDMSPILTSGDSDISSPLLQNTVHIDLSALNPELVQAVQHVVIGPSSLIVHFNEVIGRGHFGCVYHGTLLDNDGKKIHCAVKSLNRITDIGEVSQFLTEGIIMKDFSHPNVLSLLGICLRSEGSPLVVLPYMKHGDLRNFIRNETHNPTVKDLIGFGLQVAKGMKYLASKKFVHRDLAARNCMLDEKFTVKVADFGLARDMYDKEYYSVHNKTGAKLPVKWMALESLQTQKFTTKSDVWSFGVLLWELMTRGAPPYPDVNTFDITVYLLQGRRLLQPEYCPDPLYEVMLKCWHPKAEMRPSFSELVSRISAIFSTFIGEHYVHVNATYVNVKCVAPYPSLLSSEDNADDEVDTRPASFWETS

Molecular target: Zinc and ring finger 3 (ZNRF3), HA-tagged, doxycycline-inducible in H1703 cells (human) (UniProt Q9ULT6)
Assay: co-IP; anti-HA on Protein A/G Plus Agarose from precleared lysates of doxycycline-induced TetOn ZNRF3-HA H1703 cells, 4 °C for 4 hr, washed four times with Triton lysis buffer (1 % Triton X-100, 150 mM NaCl, pH 7.5); blot for endogenous MET and SRC; siRNA knockdown of MET or SRC; also a time course of 100 ng/ml HGF (binding increased, peak at 30 min)

binding: binds
Substance: MET (mesenchymal-epithelial transition factor / hepatocyte growth factor receptor), endogenous (from UniProt P08581-1 25-1390)
